According to US20220049017A1:
These are yes or no findings as the source states them, for the method shown. Some binding calls cover weakened binding; strength is not graded here. Blank lines part the entries; values can stand above or below the binder they belong to.

Amino acid sequences for entries named in this document (tags omitted). A change or cut given only in a name is not applied to a line headed by its entry.
UniProt Q8NBP7: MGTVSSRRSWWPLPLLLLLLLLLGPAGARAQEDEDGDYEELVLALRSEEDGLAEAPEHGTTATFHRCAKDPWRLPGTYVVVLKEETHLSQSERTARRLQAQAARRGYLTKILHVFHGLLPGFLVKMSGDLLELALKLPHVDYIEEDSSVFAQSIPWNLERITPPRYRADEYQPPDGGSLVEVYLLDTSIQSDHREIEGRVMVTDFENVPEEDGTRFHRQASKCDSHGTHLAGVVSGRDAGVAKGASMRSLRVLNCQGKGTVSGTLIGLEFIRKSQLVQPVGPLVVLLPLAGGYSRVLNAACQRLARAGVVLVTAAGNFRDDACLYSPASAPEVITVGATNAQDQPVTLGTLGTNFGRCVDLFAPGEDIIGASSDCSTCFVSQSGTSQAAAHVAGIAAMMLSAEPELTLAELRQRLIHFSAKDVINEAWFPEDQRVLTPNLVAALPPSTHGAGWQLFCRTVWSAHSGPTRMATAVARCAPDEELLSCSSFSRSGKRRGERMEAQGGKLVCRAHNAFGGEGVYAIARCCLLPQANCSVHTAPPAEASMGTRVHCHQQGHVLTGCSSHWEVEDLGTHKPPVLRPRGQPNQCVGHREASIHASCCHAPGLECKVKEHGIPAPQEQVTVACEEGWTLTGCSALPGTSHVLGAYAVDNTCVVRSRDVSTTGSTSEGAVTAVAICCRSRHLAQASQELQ

Target: human PCSK9 reference (human) (UniProt Q8NBP7)
Experiment: ProteOn SPR

binding: binds
B1: CL-274698 (antibody, V domains shown)
VH: QVQLQESGPGLVKPSGTLSLTCAVSGGSISSSKWWSWVRQPPGKGLEWIGETHYSGSTNYNPSLKSRVTISVDKSKNQFSLKLRSVTAADTAVYYCARVGATENFWGQGTLVTVSS
VL: EIVLTQSPATLSLSPGERATLSCRASQSVFRYLAWYQQKPGQAPRLLIYDASTRATDIPARFSGSGSGTDFTLTISSLEPEDFAVYYCQQRSNWPPTFGQGTKVEIK

binding: binds
B2: CL-148219 QLT mutant (antibody, V domains shown)
VH: QVHLQESGPGLVKPSETLSLTCTVSGGSISSYYWSWIRQYPGKGLEWIGYISYSGSSNYNPSLKRRVTISRDTSKNQFSLQLTSVIAADTAVYYCARNLMIRGAYGMDVWGQGTTVTVSS
VL: DTVMTQSPLSLPVTPGEPASISCRSSQSLLHSNGYNYLDWYLQKAGQSPQLLIYLGSNRASGVPDRFSGSVSGTDFTLKISRVEAEDVGIYYCMQALQTPFTFGPGTKVDIK
